Source: PubChem BioAssay (NCATS)
This list was built around the results that the source calls inconclusive (neither active nor inactive); the mix of calls is not that of the screen. Potencies beside an inconclusive call are fits to weak or partial responses and may not hold up. Active and inactive are the calls of the source. The call rests on the fitted dose curve; in most records, active means well fitted cell-killing curve with a large enough effect; inconclusive means small, poorly fitted or top-dose-only effect, or effect the other way; inactive means no such curve, though single readings can be large or run the other way.

Assay: Quantitative High-Throughput drug screen in 47 multiple myeloma cell lines against the NCATS MIPE library collection: MM1R_ATCC cell viability assay (AID 1918981); further: nearly all actives have a fitted effect of over 35% in size
Conditions: MM1R multiple myeloma cells, CellTiter-Glo viability, 48 h; series mostly up to 45.8 µM; viability (% of control): at the top concentration
Source text: PI: Beverly A. Mock Ph.D.
Laboratory of Cancer Biology and Genetics,
Center for Cancer Research, National Cancer Institute,
National Institute of Health, Bethesda, Maryland
Drug resistance and disease progression are common in multiple myeloma (MM) patients, underscoring the need for new therapeutic combinations. […] We hypothesized that effective combinations would reduce MYC expression and enhance p16 activity. […] These preclinical data identify potentially useful drug combinations for evaluation in drug-resistant MM and reveal potential mechanisms of combined drug sensitivity.
Described herein is the primary MIPE qHTS used to cherrypick compounds. Validated compounds were then further tested for potential synergistic activiy.
[1] Peat TJ, Gaikwad SM, Dubois W, Gyabaah-Kessie N, Zhang S, Gorjifard S, Phyo Z, Andres M, Hughitt VK, Simpson RM, Miller MA, Girvin AT, Taylor A, Williams D, D'Antonio N, Zhang Y, Rajagopalan A, Flietner E, Wilson K, Zhang X, Shinn P, Klumpp-Thomas C, McKnight C, Itkin Z, Chen L, Kazandijian D, Zhang J, Michalowski AM, Simmons JK, Keats J, Thomas CJ, Mock BA. Drug combinations identified by high-throughput screening promote cell cycle transition and upregulate Smad pathways in myeloma. Cancer Lett. 2023 Aug 1;568:216284. doi: 10.1016/j.canlet.2023.216284. Epub 2023 Jun 24. PMID: 37356470; PMCID: PMC10408729.
SEQUENCE No. (e.g., 1, 2, 3, etc.); […] (e.g., Cells, Incubation, Reagent, etc.); VALUE and DESCRIPTION.
1; Cells; 5 uL; white, solid bottom 1536-well Greiner assay plate.
2; Compounds; 23 nL; Kalypsis pin tool (Wako USA) equipped with a 1536-well pin head to transfer to the assay plates.
3; Incubation; 48 hours; 37C incubation.
4; Reagent;5uL; CellTiter Glo (Promega).
5; Detector; 425V; Luminescence; Viewlux PerkinElmer.
NOTES (numbers refer to Sequence numbers above)
1. The cell-based screening methods employed in this study were like those previously published. Briefly, the corresponding myeloma cell lines were screened in 1,536-well plates with 500 cells, 5-uL per well for inhibition of cell viability (assessed by measuring ATP levels with CellTiterGlo).
2. NCATS MIPE 4.0 library of approved and investigational drugs were added using the Kalypsis pin tool. Wells treated with DMSO only for 100% viability and media only for 0% viability were used as controls.
3. The assay plates were covered and incubated for 48 hours in a 37C, 5% CO2 incubator with controlled humidity.
4. After 48 hours, CellTilter-GloTM luminescent substrate mix (Promega) reagent was added to the assay plate and plates we incubated for 5 min at room temperature.
5. Signal was measured as median relative luminescence units on a ViewLux (PerkinElmer) multiplate reader.
[1] Heske CM, Davis MI, Baumgart JT, Wilson K, Gormally MV, Chen L, Zhang X, Ceribelli M, Duveau DY, Guha R, Ferrer M, Arnaldez FI, Ji J, Tran HL, Zhang Y, Mendoza A, Helman LJ, Thomas CJ. Matrix Screen Identifies Synergistic Combination of PARP Inhibitors and Nicotinamide Phosphoribosyltransferase (NAMPT) Inhibitors in Ewing Sarcoma. Clin Cancer Res. 2017 Dec 1;23(23):7301-7311. doi: 10.1158/1078-0432.CCR-17-1121. Epub 2017 Sep 12. PMID: 28899971; PMCID: PMC6636827.
Potency means the concentration at half of the fitted maximal effect.

SMILES	Potency	viability (% of control)
CC[C@H]1OC(=O)[C@H](C)[C@@H](O[C@H]2C[C@@](C)(OC)[C@@H](O)[C@H](C)O2)[C@H](C)[C@@H](O[C@@H]2O[C@@H](C)C[C@H](N(C)C)[C@@H]2O)[C@](C)(O)C[C@@H](C)C(=O)[C@H](C)[C@@H](O)[C@]1(C)O	inconclusive: 7.43 µM [rising, single point]	–
COc1ccc(-c2cc3nccn3c(Nc3ncccc3C(N)=O)n2)cc1OC	inconclusive: 5.26 µM [cytotoxic, partial curve]	–
O=C(NOC[C@H](O)CO)c1ccc(F)c(F)c1Nc1ccc(I)cc1F	inconclusive: 0.0166 µM [cytotoxic, full curve, poor fit]	–
CN(C)c1nc(N(C)C)nc(N(C)C)n1	–	inactive: 112%
CC(Oc1ccc(O)cc1)(P(=O)(O)O)P(=O)(O)O	inconclusive: 9.35 µM [cytotoxic, partial curve, poor fit]	–
CC(=O)[C@H]1CC[C@H]2[C@@H]3CC=C4C[C@@H](O)CC[C@]4(C)[C@H]3CC[C@]12C	inconclusive: 18.7 µM [cytotoxic, partial curve, poor fit]	–
C[C@@H]1[C@H](C)CC[C@]2(C(=O)O)CC[C@]3(C)C(=CC[C@@H]4[C@@]5(C)CC[C@H](O)C(C)(C)[C@H]5CC[C@]43C)[C@@H]12	active: 21.5 µM	–
O=C1CCC(N2C(=O)c3ccccc3C2=O)C(=O)N1 (stereo not given)	inconclusive: 13.2 µM [cytotoxic, partial curve, poor fit]	–
CCC(=O)O[C@]1(C(=O)CCl)[C@@H](C)C[C@H]2[C@@H]3CCC4=CC(=O)C=C[C@]4(C)[C@@]3(F)[C@@H](O)C[C@@]21C	–	inactive: 102%
COc1ccc(-c2ccc3cc(C(=O)O)ccc3c2)cc1C12CC3CC(CC(C3)C1)C2	active: 7.43 µM	–
O=C(NCCS(=O)(=O)c1ccc(C(F)(F)F)cn1)c1ccc(Cl)cc1	inconclusive: 0.209 µM [cytotoxic, full curve, poor fit]	–
CN(c1nccc(=O)[nH]1)C1CCN(c2nc3ccccc3n2Cc2ccc(F)cc2)CC1	inconclusive: 0.0026 µM [rising, full curve, poor fit]	–
O=C(CC12CC3CC(CC(C3)C1)C2)Nc1cccc2nc(NCCNCCO)ccc12	active: 20.9 µM	–
CN1CC(=O)NC1=NC(=O)Nc1cccc(Cl)c1	active: 18.7 µM	–
c1cc(N[C@@H]2CCNC2)nc(-c2cnc3ccc(-c4cn[nH]c4)cn23)c1	active: 20.9 µM	–
CC(C)(S)[C@@H](N)C(=O)O	inconclusive: 0.743 µM [rising, full curve, poor fit]	–
NC(N)=NC(=O)c1nc(Cl)c(N)nc1N	inconclusive: 0.0047 µM [rising, full curve, poor fit]	–
N#CC[C@H](C1CCCC1)n1cc(-c2ncnc3[nH]ccc23)cn1	inconclusive: 26.4 µM [cytotoxic, single point]	–
Cc1ccc(S(=O)(=O)OCC(=O)Nc2ccc(C(=O)O)c(O)c2)cc1	inconclusive: 37.2 µM [cytotoxic, single point]	–
COC(=O)[C@H](CCCN=C(N)N)NS(=O)(=O)c1ccc(C)cc1	–	inactive: 125%

Laid out differently: entries from further up
CN1CC(=O)NC1=NC(=O)Nc1cccc(Cl)c1
  Potency: active: 18.7 µM
c1cc(N[C@@H]2CCNC2)nc(-c2cnc3ccc(-c4cn[nH]c4)cn23)c1
  Potency: active: 20.9 µM

Carrying on.

SMILES	Potency	viability (% of control)
CC(C)(C)c1cc(NC(=O)Nc2ccc(-c3cn4c(n3)sc3cc(OCCN5CCOCC5)ccc34)cc2)no1	inconclusive: 16.6 µM [cytotoxic, partial curve, poor fit]	–
Fc1ccc(Cl)cc1-c1nc(Nc2ccncc2)c2nccnc2n1	inconclusive: 0.0372 µM [cytotoxic, full curve, poor fit]	–
COc1ccc(-c2ccc3ncc4c(c3c2)n(-c2ccc(N3CCNCC3)c(C(F)(F)F)c2)c(=O)n4C)cn1	inconclusive: 0.0053 µM [cytotoxic, full curve]	–
C=CC1=C(C(=O)O)N2C(=O)[C@@H](NC(=O)C(=NO)c3csc(N)n3)[C@H]2SC1	–	inactive: 151%
CCC(C)(C)c1ccc(CC(C)CN2C[C@@H](C)O[C@@H](C)C2)cc1 (stereo not given in full)	inconclusive: 33.2 µM [cytotoxic, single point]	–
Oc1ccc(C2CNCCc3c2cc(O)c(O)c3Cl)cc1 (stereo not given)	–	inactive: 83.4%
CN(C)CCCNC(=O)c1ccc(-c2cc(O)c3ncccc3c2)cc1	active: 20.9 µM	–
COc1cc2c(c(OC)c1OC)-c1ccc(OC)c(=O)cc1[C@@H](NC(C)=O)CC2	inconclusive: 0.0053 µM [cytotoxic, partial curve, poor fit]	–
Cc1ccc(S(=O)(=O)NC(=O)NN2CC3CCCC3C2)cc1 (stereo not given)	inconclusive: 37.2 µM [cytotoxic, single point]	–
CS(=O)(=O)Nc1ccc([N+](=O)[O-])cc1Oc1ccccc1	active: 20.9 µM	–
Nc1nc(Cl)nc2c1ncn2[C@@H]1O[C@H](CO)[C@@H](O)[C@H]1F	inconclusive: 0.148 µM [cytotoxic, full curve, poor fit]	–
Cn1c(=O)c2c(ncn2C)n(C)c1=O	–	inactive: 91.6%
NC(=O)c1cnccn1	–	inactive: 138%
CC(=O)NC(CS)C(=O)O (stereo not given)	inconclusive: 33.2 µM [cytotoxic, single point]	–
COc1cccc(N(C)C(=S)Oc2ccc3c(c2)CCCC3)n1	–	inactive: 99.3%
OC[C@H]1OC(O)C[C@@H](O)[C@H]1O (stereo not given in full)	inconclusive: 0.0021 µM [rising, full curve, poor fit]	–
C[C@]12CCC(=O)C=C1CC[C@@H]1[C@H]2[C@@H](O)C[C@@]2(C)[C@H]1CC[C@]2(O)C(=O)CO	inconclusive: 0.0093 µM [rising, full curve, poor fit]	–
CNC(=O)c1ccc2c(C(=Nc3cccc(CN(C)C)c3)c3ccccc3)c(O)[nH]c2c1	inconclusive: 14.8 µM [cytotoxic, partial curve, poor fit]	–
C[C@@]12C[C@@]3(O)O[C@@H](O1)[C@]1(COC(=O)c4ccccc4)[C@@H]3C[C@@]12O[C@@H]1O[C@H](CO)[C@@H](O)[C@H](O)[C@@H]1O	inconclusive: 0.0017 µM [rising, full curve, poor fit]	–
O=C(CN1C(=O)C2(CCCC2)NC[C@H]1c1cc(F)cc(F)c1)Nc1ccc2c(c1)C[C@@]1(C2)C(=O)Nc2ncccc21	–	inactive: 122%

Quoted at random: 2 compounds from above
SMILES	Potency	viability (% of control)
COc1cccc(N(C)C(=S)Oc2ccc3c(c2)CCCC3)n1	–	inactive: 99.3%
COc1cc2c(c(OC)c1OC)-c1ccc(OC)c(=O)cc1[C@@H](NC(C)=O)CC2	inconclusive: 0.0053 µM [cytotoxic, partial curve, poor fit]	–
